Measured values from PMC11022708.
No constants are given. Whether binding was seen depends on the method and setting. In cells and extracts the contact can be indirect. These calls come from enrichment with a bait or labelling near it, and not all partners need be listed.

Chains of the proteins cited; added tags and fusions are not shown.
UniProt O60828: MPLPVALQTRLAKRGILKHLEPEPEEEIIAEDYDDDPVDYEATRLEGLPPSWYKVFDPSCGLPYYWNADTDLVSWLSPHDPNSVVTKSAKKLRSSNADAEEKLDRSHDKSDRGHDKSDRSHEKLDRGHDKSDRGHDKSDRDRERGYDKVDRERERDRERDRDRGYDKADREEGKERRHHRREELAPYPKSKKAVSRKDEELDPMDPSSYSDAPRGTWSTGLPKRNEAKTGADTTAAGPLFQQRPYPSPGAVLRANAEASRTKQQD
UniProt O75533: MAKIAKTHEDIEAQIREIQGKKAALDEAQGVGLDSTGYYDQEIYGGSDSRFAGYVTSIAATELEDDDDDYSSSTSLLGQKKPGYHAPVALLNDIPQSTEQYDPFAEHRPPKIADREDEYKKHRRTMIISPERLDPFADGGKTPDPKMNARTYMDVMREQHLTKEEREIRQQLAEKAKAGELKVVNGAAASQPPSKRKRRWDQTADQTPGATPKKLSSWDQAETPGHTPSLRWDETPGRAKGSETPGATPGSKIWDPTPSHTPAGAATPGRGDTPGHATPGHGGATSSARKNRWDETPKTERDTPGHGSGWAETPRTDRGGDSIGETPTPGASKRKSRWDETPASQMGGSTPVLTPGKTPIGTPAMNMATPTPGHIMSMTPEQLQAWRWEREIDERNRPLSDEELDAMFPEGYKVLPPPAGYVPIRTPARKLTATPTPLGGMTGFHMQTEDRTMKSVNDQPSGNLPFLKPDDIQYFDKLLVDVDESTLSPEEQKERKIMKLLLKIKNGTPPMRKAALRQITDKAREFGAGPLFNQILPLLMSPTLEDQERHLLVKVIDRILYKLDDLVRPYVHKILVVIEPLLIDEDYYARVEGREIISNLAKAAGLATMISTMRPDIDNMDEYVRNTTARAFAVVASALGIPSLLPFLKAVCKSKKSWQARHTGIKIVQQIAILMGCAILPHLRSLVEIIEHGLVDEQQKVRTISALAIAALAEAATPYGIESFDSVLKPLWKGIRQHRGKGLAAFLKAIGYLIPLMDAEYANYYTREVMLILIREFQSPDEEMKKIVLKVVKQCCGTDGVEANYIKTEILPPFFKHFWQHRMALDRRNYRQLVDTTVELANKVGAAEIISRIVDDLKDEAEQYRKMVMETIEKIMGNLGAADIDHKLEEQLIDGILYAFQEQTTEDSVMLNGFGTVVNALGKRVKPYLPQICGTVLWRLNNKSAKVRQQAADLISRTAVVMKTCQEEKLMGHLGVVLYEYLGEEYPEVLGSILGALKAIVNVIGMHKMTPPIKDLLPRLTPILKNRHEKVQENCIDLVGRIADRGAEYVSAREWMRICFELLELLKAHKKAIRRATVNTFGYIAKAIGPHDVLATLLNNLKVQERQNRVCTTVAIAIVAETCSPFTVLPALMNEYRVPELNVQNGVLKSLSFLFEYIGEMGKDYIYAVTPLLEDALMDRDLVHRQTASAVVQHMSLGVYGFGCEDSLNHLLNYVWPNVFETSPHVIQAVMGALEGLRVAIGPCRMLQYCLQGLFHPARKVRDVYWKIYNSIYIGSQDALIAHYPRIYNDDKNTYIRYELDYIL
UniProt Q9Y2W2: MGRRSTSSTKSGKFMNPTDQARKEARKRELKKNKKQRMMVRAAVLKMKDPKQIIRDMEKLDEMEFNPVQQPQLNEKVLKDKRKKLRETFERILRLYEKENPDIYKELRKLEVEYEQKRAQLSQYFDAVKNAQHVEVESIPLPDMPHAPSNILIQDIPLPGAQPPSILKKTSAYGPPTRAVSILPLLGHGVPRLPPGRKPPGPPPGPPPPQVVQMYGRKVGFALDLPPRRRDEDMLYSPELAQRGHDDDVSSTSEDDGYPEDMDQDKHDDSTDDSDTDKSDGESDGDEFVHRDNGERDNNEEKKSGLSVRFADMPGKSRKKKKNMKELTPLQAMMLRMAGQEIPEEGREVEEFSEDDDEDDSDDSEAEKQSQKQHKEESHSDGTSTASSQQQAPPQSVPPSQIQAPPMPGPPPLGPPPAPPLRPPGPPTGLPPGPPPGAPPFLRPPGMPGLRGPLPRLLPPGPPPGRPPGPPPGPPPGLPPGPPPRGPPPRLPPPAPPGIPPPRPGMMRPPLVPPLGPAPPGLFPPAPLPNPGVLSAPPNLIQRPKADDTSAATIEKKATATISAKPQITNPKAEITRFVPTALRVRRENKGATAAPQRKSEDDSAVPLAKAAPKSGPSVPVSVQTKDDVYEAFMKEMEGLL

Target: FLAG-tagged PQBP1 (polyglutamine binding protein-1) (UniProt O60828)
Assay: affinity purification with mass spectrometry; FLAG-tagged PQBP1 precipitated from HEY whole-cell extracts (WIP buffer) with FLAG antibody and magnetic Protein A/G beads overnight at 4 °C; beads washed three times; bands cut from a Coomassie-stained SDS-PAGE gel and analysed by LC-MS/MS

Row | binding | Substance
1 | binds | SF3B1 (from UniProt O75533 1-1304)
2 | binds | WBP11 (from UniProt Q9Y2W2 1-641)
